From article PMC8964805
These are yes or no findings as the source states them, for the method shown. Binding seen in cells or lysates may run through a third protein. Some entries that bind do so weakly or less than the wild type. For some assays here: Sequences can lack the tags named with a protein.

By UniProt entry, the sequences of proteins in these tests, tags left out.
UniProt P46938: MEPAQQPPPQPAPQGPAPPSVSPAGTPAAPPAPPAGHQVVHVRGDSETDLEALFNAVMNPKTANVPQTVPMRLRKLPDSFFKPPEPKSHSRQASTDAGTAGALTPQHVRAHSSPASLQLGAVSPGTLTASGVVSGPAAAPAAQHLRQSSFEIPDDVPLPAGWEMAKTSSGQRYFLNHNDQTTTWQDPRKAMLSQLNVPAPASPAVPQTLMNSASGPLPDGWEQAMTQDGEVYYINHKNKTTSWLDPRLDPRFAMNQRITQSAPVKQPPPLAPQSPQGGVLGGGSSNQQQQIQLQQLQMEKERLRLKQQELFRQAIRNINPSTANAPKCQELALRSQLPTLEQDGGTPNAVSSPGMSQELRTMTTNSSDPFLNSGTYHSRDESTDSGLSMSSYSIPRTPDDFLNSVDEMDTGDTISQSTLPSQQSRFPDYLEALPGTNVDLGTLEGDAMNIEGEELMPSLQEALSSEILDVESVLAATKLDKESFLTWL

Tests used:
[1] = biological target: YAP1 (endogenous, primary mouse hepatocytes) (mouse (endogenous in primary hepatocytes)) (UniProt P46938); assay: co-IP; lysates of primary hepatocytes of wild-type mice isolated at the indicated times after PHx; immunoprecipitated with a YAP1 antibody, Bcl3 detected by western blot; 1 mg total protein with 2 ug antibody or isotype control IgG, 4 °C overnight
[2] = biological target: His-YAP1 (UniProt P46938); assay: co-IP; HEK293T cells transfected with His-YAP1 and Flag-Bcl3 plasmids for 48 h; lysates immunoprecipitated with the indicated antibodies, western blot with anti-His or anti-Flag

B1: Bcl3 (endogenous, primary mouse hepatocytes) (protein, UniProt Q9Z2F6 1-448)
chain: MPRCPAGAMDEGPVDLRTRPKGTPGAALPLRKRPLRPASPEPATTRSPAGPLDALRSGCDVPVVPGPPHCVARPEALYYQGPLMPIYSTPTMAPHFPLLNLPTHPYSMICPMEHPLSADIAMATRVDEDGDTPLHIAVVQNNIAAVYRILSLFKLGSREVDVHNNLRQTPLHLAVITTLPDMVRLLVTAGASPMALDRHGQTAIHLACEHRSPSCLQALLDSATSGSVDLEVRNYEGLTALHVAVNTGCQEAVLLLLERGADIDAVDIKSGRSPLIHAVENNSLNMVQLLLLHGANVNAQMYSGSSALHSASGRGLLPLVRTLVRSGADSGLKNCHNDTPLMVARSRRVIDILRGKASRAASGSQPEPSPDQSATNSPESSSRLSSNGLQSSPSSSPSLSPPKDAPGFPATPQNFFLPTTSTPAFLPFPGVLRGPGRPVPPSPAPGSS
- binding [1]: binds

B2: Flag-Bcl3 (protein, UniProt Q9Z2F6 1-448)
chain: B1 chain
- binding [2]: binds
